# PubChem BioAssay AID2685 (National Center for Advancing Translational Sciences (NCATS), 2010)
# Some of the results follow. The main result of the screen is listed elsewhere. These columns were measured beside it and carry no call. Compounds called inactive in the main read-out are mostly missing here. Words in brackets tell the shape of the fitted curve; partial curves, single points and poor fits give uncertain potencies.
# Assay: qHTS Assay for Lipid Storage Modulators in Drosophila S3 Cells;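 on cell number change: cells counted by Cell Tracker Red CMTPX staining in the red channel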
# Settings: BODIPY lipid droplet fluorescence, 18-24 h; for cell number change: measured here: cell count max response, cells fed with added oleic acid
# Method in brief: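 Drosophila S3 cells got compounds at several concentrations plus oleic acid (400 uM solution). Laser-scanning cytometry with 488 nm excitation read lipid droplets at 500-530 nm and cells at 575-640 nm. Percent activity was relative to 20 uM Triacsin C.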
# [1] = measured here: lipid fluorescence (Fed channel) AC50, cells fed with added oleic acid
# [2] = measured here: cell number channel AC50, cells fed with added oleic acid
Structure (SMILES),cell number change [%],AC50 [1],AC50 [2]
CCN(C(=O)COc1cc(=O)n(CC)c2ccccc12)c1cc(Cl)ccc1OC,-6.73,"5.17 µM [rising, partial curve]",–
Cc1nc(C)c(-c2ccc(SCC(=O)Nc3ccccc3)nn2)s1,-13.9,"0.326 µM [rising, full curve, poor fit]",–
C=CCn1c(COc2ccccc2F)nnc1SCC(=O)N1CC(=O)Nc2ccccc21,–,"2.91 µM [rising, partial curve]","2.06 µM [rising, partial curve]"
Cc1ccc(OCC(=O)NC2=NCCS2)cc1,12.2,"16.4 µM [falling, single point]",–
Cc1ccc(C2=CC(=O)C[C@H](c3ccc(F)cc3)C2)cc1,-32.7,"16.4 µM [rising, single point]","14.6 µM [falling, partial curve, poor fit]"
O=C(NNC(=O)c1cccs1)c1ccc(S(=O)(=O)N2CCCCC2)cc1,–,"0.00411 µM [falling, full curve, poor fit]","0.13 µM [rising, full curve, poor fit]"
Cc1ccc(Nc2nc(C(=O)NCCCN3CCOCC3)cs2)cc1,-5.4,"0.082 µM [rising, full curve, poor fit]",–
COc1ccc(CCN2CC(C(=O)OCC(=O)N(C)Cc3ccccc3)CC2=O)cc1OC (stereo unspecified),-23,"29.1 µM [rising, single point]",–
Cc1ccc(NC2=NCC(=O)N2Cc2ccc3c(c2)OCO3)c(C)c1,–,"0.231 µM [rising, full curve]","0.366 µM [rising, partial curve]"
C=CCSc1nc2ccccc2n1C(=O)/C=C/c1cc(OC)c(OC)c(OC)c1,-42.1,"16.4 µM [falling, partial curve]","7.31 µM [falling, partial curve]"
O=C(NNc1ccc(-c2csnn2)cc1)c1ccccc1C(F)(F)F,14.5,"4.11 µM [falling, single point]","3.66 µM [falling, single point]"
COc1cc(SC)ccc1C(=O)Nc1cccc(C2OCCCO2)c1,-3.81,–,–
O=C(N/N=C/c1cccc(O)c1)c1ccc(COc2cccc3cccnc23)cc1,-7.73,"0.231 µM [rising, single point]",–
C/C(CC(=O)Nc1ccccc1C#N)=N\NC(=O)c1ccncc1,-12.8,"6.51 µM [falling, single point]",–
Cc1ccccc1OCCCC(=O)Nc1nccs1,-4.01,"29.1 µM [rising, single point]",–
O=C(c1ccc(Cl)cc1)[C@@H]1[C@@H]2C(=O)N(c3cccc4ccccc34)C(=O)[C@@H]2C2c3ccccc3C=NN21 (stereo partly specified),-15.3,"18.4 µM [rising, single point]",–
O=C(NCCCN1CCCCCC1)c1cc2c(=O)oc3ccccc3c2s1,-5.56,–,–
O=C(NCCc1ccc(F)cc1)c1ccc(Cl)c(S(=O)(=O)N2CCOCC2)c1,-28.2,"7.31 µM [falling, partial curve]",–
CCOC(=O)C1(P(=O)(c2ccccc2)c2ccccc2)CCC1,2.03,"0.58 µM [falling, single point]","2.06 µM [falling, partial curve, poor fit]"
CCC(=O)N1CCCc2cc(S(=O)(=O)N3CCN(C4CCCCC4)CC3)ccc21,–,"6.51 µM [rising, single point]",–
COc1ccccc1CNC(=O)C(NC(=O)c1ccccc1C)C(C)C (stereo unspecified),6.85,–,–
FC(F)(F)c1cc(-c2ccco2)nc(N2CCOCC2)n1,-17.9,"2.06 µM [rising, partial curve, poor fit]",–
CCOc1ccc(Cl)cc1S(=O)(=O)N1CCC(C(=O)NC2CC2)CC1,18.1,–,–
COc1cc(-c2cc(C(=O)Nc3cccc(S(=O)(=O)N(C)C)c3)c3ccccc3n2)cc(OC)c1OC,-1.32,"1.12 µM [falling, partial curve]",–
O=C(O)COc1ccc(NC(=O)c2ccc3c(c2)C(=O)N(C2CCCCC2)C3=O)cc1,-0.54,"18.4 µM [falling, single point]",–
Cc1ccc(S(=O)(=O)N2CCN(Cc3cc(C(C)C)ccc3O)CC2)cc1,-30.1,"25.9 µM [falling, single point]","32.6 µM [falling, single point]"
NC(=O)c1ccc(-c2ncc(-c3ccccc3)o2)cc1,-19.8,–,"0.0291 µM [falling, full curve, poor fit]"
c1ccc(-c2csc3ncnc(NCCCN4CCOCC4)c23)cc1,-21.5,"14.6 µM [falling, single point]",–

# A section from further up, as a working copy:
Structure (SMILES),cell number change [%],AC50 [1],AC50 [2]
COc1cc(-c2cc(C(=O)Nc3cccc(S(=O)(=O)N(C)C)c3)c3ccccc3n2)cc(OC)c1OC,-1.32,"1.12 µM [falling, partial curve]",–
O=C(O)COc1ccc(NC(=O)c2ccc3c(c2)C(=O)N(C2CCCCC2)C3=O)cc1,-0.54,"18.4 µM [falling, single point]",–
